Laboratory results as given in US20140031388A1, “AKT INACTIVATION BY TOCOPHERYL DERIVATIVES” (priority 2012, published 2014).
Some entries share one result that the patent states for a list of compounds. For part of these data: At least one compound was matched to its structure with a doubt left.

How the values were obtained:
Assay type in all cases: cell-based
[1] = system: PHLPP1 and Akt phosphorylated at Ser473 in non-raft fractions of LNCaP cells; test: Western blot of non-raft membrane subfractions; settings: versus vehicle
[2] = system: cholesterol content in raft domains of LNCaP cells; test: Cholesterol content of membrane subfractions
[3] = system: phosphorylation of Ser473 in Akt; test: Western blot of Akt phosphorylation at Ser473
Procedure: Cells were exposed to the test agents in 10-cm dishes for 24 hours and then collected by scraping. The cell pellets were washed once with PBS, and then lysed at 4° C. over 30 min of incubation in a sodium dodecyl sulfate (SDS) lysis buffer containing 1% SDS, 50 mM Tris HCl (pH 8.1), 10 mM EDTA and […] protease inhibitor cocktail (Sigma-Aldrich). The cell debris was pelleted by centrifugation for 20 min at 14,000×g, and 1 μl of each supernatant was used for determination of protein concentration using a colorimetric bicinchoninic assay (Pierce, Rockford, Ill.). The remaining sample was added to equal volume of 2×SDS-polyacrylamide gel electrophoresis sample loading buffer (62.5 mM Tris-HCl, pH 6.8, 4% SDS, 5% β-mercaptoethanol, 20% glycerol, 0.1% bromophenol blue), followed by incubation in boiling water for 5 min. Equivalent amounts of total protein were resolved in SDS-polyacrylamide gels, and then transferred to nitrocellulose membranes using a semidry transfer cell. The transblotted membrane was washed twice with Tris-buffered saline containing 0.1% Tween 20 (TBST). After blocking with TBST containing 5% nonfat milk for 40 min, the membrane was incubated with the appropriate primary antibody (1:1000) in TBST-1% nonfat milk at 4° C. overnight. […]

Cc1c(C)c2c(c(C)c1O)CC[C@@](C)(CCCC(C)C)O2 [α-VE5, (R)-2,5,7,8-tetramethyl-2-(4-methylpentyl)-chroman-6-ol]
decrease in the phosphorylation of Ser473 in Akt in non-raft fractions [1]: more than 65% | increase of association of PHLPP1 with the membrane in non-raft fractions [1]: more than 2.5 fold | reduction of cholesterol content in the raft domains (fractions 3 and 4) [2]: ≤ 30%

Cc1c(O)cc2c(c1C)O[C@](C)(CCC[C@H](C)CCC[C@H](C)CCCC(C)C)CC2 [γ-tocopherol, reference compound]
concentrations required to induce PHLPP-mediated Akt inhibition [3]: greater than 150 μM

Cc1c(C)c2c(c(C)c1O)CC[C@@](C)(CCC[C@H](C)CCC[C@H](C)CCCC(C)C)O2 [α-tocopherol, reference compound]
concentrations required to induce PHLPP-mediated Akt inhibition [3]: greater than 150 μM

Cc1c(O)cc2c(c1C)O[C@](C)(CCCC(C)C)CC2 [γ-VE5, (R)-2,7,8-trimethyl-2-(4-methylpentyl)-chroman-6-ol]
reduction of cholesterol content in the raft domains (fractions 3 and 4) [2]: ≤ 30%
